# Laboratory results taken from PubChem BioAssay AID493014 (National Center for Advancing Translational Sciences (NCATS), 2011).
# The list shows a part of the results. Shown are side measurements of this screen, not its main read-out; they come without a call. Compounds called inactive in the main read-out are mostly missing here. Words in brackets tell the shape of the fitted curve; partial curves, single points and poor fits give uncertain potencies.
# Assay: qHTS Assay to Find Inhibitors of Chronic Active B-Cell Receptor Signaling
# Settings: ABC-DLBCL IkBa-CBG/CBR reporter, luminescence ratio (green luciferase fused to IkBa over red control in TMD8 lymphoma cells), 4 h
# Method in brief: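 Cell line TMD8 (human ABC DLBCL), stably expressing tet-inducible CBG68-IkBa fusion and CBR; IMDM/0.5% FBS; cpd up to 46 uM; dox induction, 4 h, 37C/5% CO2; dual luminescence; green/red ratio; MG132 control.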
# [1] = measured here: CBR red luminescence, cell number
# [2] = measured here: IkBa-CBG green luminescence
SMILES,AC50 [1],AC50 [2]
Cc1ccc(NC(=O)CNC(c2ccccc2)c2ccccc2)c(F)c1,"2.91 µM [rising, single point]",–
COC(=O)c1ccccc1NC(=O)NCc1ccccn1,"6.51 µM [falling, partial curve, poor fit]",–
COc1ccc2nc(NC(=O)c3cccc(S(=O)(=O)N4CCOCC4)c3)sc2c1,"3.98 µM [falling, partial curve, poor fit]",–
CCc1ccccc1NC(=O)C1COc2ccccc2O1 (stereo not drawn),"10 µM [rising, partial curve, poor fit]",–
Cc1cccc(-c2noc(-c3ccoc3C)n2)c1,"35.5 µM [rising, single point]",–
Cc1cc(F)ccc1S(=O)(=O)Nc1ccc(C(=O)N(C)Cc2ccco2)cc1,"25.9 µM [rising, single point]",–
CCN1CCCc2cc(CN(CCN3CCOCC3)C(=O)Nc3ccc(C)c(C)c3)ccc21,"20.6 µM [falling, single point]",–
Cc1ccccc1-c1nnc(SCCOc2ccc3c(C)cc(=O)oc3c2)o1,"29.1 µM [rising, single point]",–
CSCc1ccc(C(=O)Nc2cccc(C)c2C)cc1,"1.46 µM [falling, full curve]",–
CCOc1ccccc1N1CCN(C(=O)c2cc3ccccc3cc2OC)CC1,"25.9 µM [rising, single point]","18.4 µM [falling, single point]"
O=C1C(Cl)=C(Nc2ccc(O)cc2)C(=O)c2ccccc21,"35.5 µM [falling, single point]","11.2 µM [rising, partial curve, poor fit]"
COc1ccc(C(C)=O)cc1CSc1nc2ccccc2c(=O)n1-c1ccccc1C,–,"5.17 µM [falling, partial curve, poor fit]"
Cc1ccc(OCc2nc(-c3ccc(-n4cccc4)cc3)no2)cc1C,"2.31 µM [falling, single point]",–
COc1ccc(-c2cc(C(=O)Nc3ccccc3SC)no2)cc1OC,"0.355 µM [falling, partial curve, poor fit]",–
Nc1ccc(C(=O)N/N=C\c2cc(N=Nc3cccc4ccccc34)ccc2O)cc1,"11.2 µM [falling, partial curve, poor fit]",–
COc1cc(/C=C2/CCc3ccccc3C2=O)cc(OC)c1OC,"29.1 µM [falling, single point]",–
CCC(=O)Nc1cccc(-c2ccc(N3CCCCC3)nn2)c1,"12.6 µM [falling, single point]",–
COc1ccc(N(CC(=O)N2CCc3ccccc32)S(=O)(=O)c2c(C)nn(C)c2C)cc1,"3.26 µM [falling, partial curve, poor fit]",–
Cc1ccc2c(c1)nc(NCCCO)n2C,"32.6 µM [rising, single point]",–
O=C(Nc1ccc(Cl)cc1)N(Cc1cccs1)Cc1cccs1,"2.31 µM [rising, partial curve, poor fit]",–
Cc1ccccc1C(=O)Nn1c(C)ccc1C,"12.6 µM [falling, partial curve, poor fit]",–
c1ccc(CN2CCC(Nc3nc(-c4cccnc4)nc4ccccc34)CC2)cc1,"25.1 µM [falling, single point]",–

# Some of the entries so far, bar-delimited:
SMILES | AC50 [1] | AC50 [2]
CCc1ccccc1NC(=O)C1COc2ccccc2O1 (stereo not drawn) | 10 µM [rising, partial curve, poor fit] | –
Cc1ccccc1-c1nnc(SCCOc2ccc3c(C)cc(=O)oc3c2)o1 | 29.1 µM [rising, single point] | –

# Going on with the list:

SMILES,AC50 [1],AC50 [2]
O=C(NCc1ccccn1)c1cn(Cc2ccccc2)nn1,"17.8 µM [rising, partial curve, poor fit]",–
Cn1nnc2c(NCc3c(F)cccc3F)ncnc21,"6.31 µM [falling, full curve, poor fit]",–
CN1CCN(C(c2ccc(F)cc2)c2nnnn2Cc2cccs2)CC1 (stereo not drawn),"32.6 µM [falling, single point]",–
O=C1/C(=C/c2ccc(F)cc2)CCC1C1CCCC1 (stereo not drawn),"2.06 µM [rising, partial curve]",–
C#CC(=O)N(c1ccc(OC)cc1OC)C(C(=O)NC1CCCC1)c1cccs1 (stereo not drawn),"35.5 µM [falling, single point]",–
O=C(Nc1ccc(-c2csc(Nc3ccc(Cl)cc3)n2)cc1)c1cccc(C(F)(F)F)c1,"35.5 µM [rising, single point]",–
Cc1ccccc1/C=C/C(=O)c1ccc([N+](=O)[O-])o1,"3.66 µM [falling, partial curve, poor fit]",–
O=C(O)C1CC(=O)N(C2CCCCC2)C1c1ccccc1 (stereo not drawn),"0.92 µM [falling, full curve, poor fit]",–
Cc1cccc(/C=N/NC(=O)CNc2cccc3ccccc23)n1,"13 µM [falling, partial curve]",–
Cc1cc(Cl)c2oc(C(=O)N(C)C3CCOC3)c(C)c2c1 (stereo not drawn),"12.6 µM [rising, partial curve]",–
COc1ccc(NC(=O)COC(=O)CCCN2C(=O)c3ccccc3C2=O)cc1Cl,"32.6 µM [rising, single point]",–
C/C(=N\NC(=O)c1cccnc1)c1cc2ccccc2o1,"11.2 µM [falling, partial curve, poor fit]",–
CCn1c2ccccc2c2cc(NC(=O)COC(=O)c3cccc(S(=O)(=O)NC)c3)ccc21,"23.1 µM [rising, partial curve, poor fit]",–
CC(=O)Nc1ccc(S(=O)(=O)NC(CC(=O)NC2CCCCC2C)C(C)C)cc1 (stereo not drawn),"23.1 µM [rising, single point]",–
O=C(Nc1ccncc1)c1c(Cl)cccc1Cl,"25.1 µM [falling, single point]",–
CCOC(=O)C(CC)Sc1nc2c(c(=O)[nH]c(=O)n2C)n1C/C=C(/C)Cl (stereo not drawn),"4.11 µM [rising, single point]","4.61 µM [rising, partial curve, poor fit]"
COc1cccc(/C=N/NC(=O)c2ccc(-n3cnnn3)cc2)c1,"16.4 µM [falling, single point]",–
O=c1ccc2cc(S(=O)(=O)N3CCN(c4ccc(Cl)cc4)CC3)ccc2o1,"6.31 µM [rising, single point]",–
N#CC1=C(N)SC(N)=C(C#N)C1C1C=CCCC1 (stereo not drawn),"29.1 µM [falling, partial curve, poor fit]",–
CC(=O)c1ccc(NS(=O)(=O)c2cccc(C)c2)cc1,"0.651 µM [falling, partial curve, poor fit]",–
Cc1occc1C(=O)N1CCCC(Nc2ccc(C(C)C)cc2)C1 (stereo not drawn),"5.62 µM [rising, partial curve, poor fit]",–
CN1C(=S)N(c2cccnc2)C(=O)/C1=C\c1ccc(N(C)C)cc1,"7.94 µM [rising, partial curve, poor fit]",–

SMILES,AC50 [1],AC50 [2]
Cc1oc(-c2ccc(C(F)(F)F)cc2)nc1CN(Cc1ccccn1)C[C@@H]1CCC(=O)N1,"20 µM [falling, partial curve, poor fit]",–
Cc1occc1C(=O)N/N=C/c1ccc(N(C)C)cc1,"0.398 µM [falling, full curve]",–
COc1cc(OC)c(C(=O)Nc2cccc3ccccc23)cc1OC,"8.91 µM [rising, partial curve, poor fit]",–
Cc1ccc(N(CC(=O)NC2CCCC2)C(=O)CNC(=O)c2cccs2)cc1C,"2.24 µM [rising, partial curve, poor fit]",–
O=C(Nc1ccc(F)cc1)c1nsc(Cl)c1Cl,"25.9 µM [falling, single point]",–
COc1ccc(-c2nn(-c3ccccc3)cc2C(=O)Nc2cccc(C(=O)O)c2)cc1[N+](=O)[O-],"7.94 µM [rising, partial curve]",–
COc1ccc(Nc2nc3ccccc3n3cnnc23)cc1,"0.651 µM [rising, full curve]",–
Cc1ccc[n+](-c2nc3ccccc3nc2[N-]S(=O)(=O)c2ccccc2)c1,"0.631 µM [rising, full curve, poor fit]",–
CS(=O)(=O)c1[nH]nc(-c2cccc(Cl)c2)c1C#N,"3.55 µM [rising, partial curve, poor fit]",–
CCn1c(SCc2cc(=O)n3ccsc3n2)nc2ccccc21,"7.08 µM [falling, partial curve]",–
O=C(Nc1ccc(Cl)cc1)Nc1ccc(Br)cn1,"0.447 µM [rising, full curve, poor fit]",–
CC(C)(C)c1cc(NC(=O)CCl)n(-c2ccccc2)n1,"11.2 µM [falling, partial curve, poor fit]",–
Cc1nn(C)c(Sc2ccccc2N)c1[N+](=O)[O-],"12.6 µM [rising, partial curve, poor fit]","28.2 µM [falling, single point]"
Cc1nc(NC(=O)c2ccc3c(c2)OCCO3)ccc1Br,"12.6 µM [falling, partial curve]",–
CCOc1cc(CNCC(C)C)cc(Cl)c1OCc1ccccc1,"14.1 µM [falling, single point]",–
CC(C)C/C=C1\CCc2c([nH]c3ccccc23)C1=O,"11.2 µM [falling, single point]",–
CC12CN3CCN(CC(C3)/C1=N/NC(=O)Nc1ccccc1)C2,"0.00461 µM [rising, full curve, poor fit]",–
O=[N+]([O-])/C=C/c1cn(Cc2ccccc2)c2ccccc12,"31.6 µM [falling, partial curve, poor fit]",–
Cc1cc(C(=O)CSc2nc(N)cc(N)n2)c(C)n1-c1cccc(F)c1,"6.51 µM [rising, partial curve, poor fit]",–
Cc1nc(CNS(=O)(=O)c2cc([N+](=O)[O-])ccc2C)cs1,"31.6 µM [rising, single point]",–
